These are yes or no findings as the source states them, for the method shown. Binding seen in cells or lysates may run through a third protein.
Target: GFP-tagged ZO-1 full-length protein (UniProt Q07157)
Assay: pull-down; only the target purified

Protein sequences, listed by entry. Tags and fused reporters are not part of them. Lines headed by an entry give the natural chain unless they say otherwise; changes in a name come on top.
UniProt Q07157, whole entry: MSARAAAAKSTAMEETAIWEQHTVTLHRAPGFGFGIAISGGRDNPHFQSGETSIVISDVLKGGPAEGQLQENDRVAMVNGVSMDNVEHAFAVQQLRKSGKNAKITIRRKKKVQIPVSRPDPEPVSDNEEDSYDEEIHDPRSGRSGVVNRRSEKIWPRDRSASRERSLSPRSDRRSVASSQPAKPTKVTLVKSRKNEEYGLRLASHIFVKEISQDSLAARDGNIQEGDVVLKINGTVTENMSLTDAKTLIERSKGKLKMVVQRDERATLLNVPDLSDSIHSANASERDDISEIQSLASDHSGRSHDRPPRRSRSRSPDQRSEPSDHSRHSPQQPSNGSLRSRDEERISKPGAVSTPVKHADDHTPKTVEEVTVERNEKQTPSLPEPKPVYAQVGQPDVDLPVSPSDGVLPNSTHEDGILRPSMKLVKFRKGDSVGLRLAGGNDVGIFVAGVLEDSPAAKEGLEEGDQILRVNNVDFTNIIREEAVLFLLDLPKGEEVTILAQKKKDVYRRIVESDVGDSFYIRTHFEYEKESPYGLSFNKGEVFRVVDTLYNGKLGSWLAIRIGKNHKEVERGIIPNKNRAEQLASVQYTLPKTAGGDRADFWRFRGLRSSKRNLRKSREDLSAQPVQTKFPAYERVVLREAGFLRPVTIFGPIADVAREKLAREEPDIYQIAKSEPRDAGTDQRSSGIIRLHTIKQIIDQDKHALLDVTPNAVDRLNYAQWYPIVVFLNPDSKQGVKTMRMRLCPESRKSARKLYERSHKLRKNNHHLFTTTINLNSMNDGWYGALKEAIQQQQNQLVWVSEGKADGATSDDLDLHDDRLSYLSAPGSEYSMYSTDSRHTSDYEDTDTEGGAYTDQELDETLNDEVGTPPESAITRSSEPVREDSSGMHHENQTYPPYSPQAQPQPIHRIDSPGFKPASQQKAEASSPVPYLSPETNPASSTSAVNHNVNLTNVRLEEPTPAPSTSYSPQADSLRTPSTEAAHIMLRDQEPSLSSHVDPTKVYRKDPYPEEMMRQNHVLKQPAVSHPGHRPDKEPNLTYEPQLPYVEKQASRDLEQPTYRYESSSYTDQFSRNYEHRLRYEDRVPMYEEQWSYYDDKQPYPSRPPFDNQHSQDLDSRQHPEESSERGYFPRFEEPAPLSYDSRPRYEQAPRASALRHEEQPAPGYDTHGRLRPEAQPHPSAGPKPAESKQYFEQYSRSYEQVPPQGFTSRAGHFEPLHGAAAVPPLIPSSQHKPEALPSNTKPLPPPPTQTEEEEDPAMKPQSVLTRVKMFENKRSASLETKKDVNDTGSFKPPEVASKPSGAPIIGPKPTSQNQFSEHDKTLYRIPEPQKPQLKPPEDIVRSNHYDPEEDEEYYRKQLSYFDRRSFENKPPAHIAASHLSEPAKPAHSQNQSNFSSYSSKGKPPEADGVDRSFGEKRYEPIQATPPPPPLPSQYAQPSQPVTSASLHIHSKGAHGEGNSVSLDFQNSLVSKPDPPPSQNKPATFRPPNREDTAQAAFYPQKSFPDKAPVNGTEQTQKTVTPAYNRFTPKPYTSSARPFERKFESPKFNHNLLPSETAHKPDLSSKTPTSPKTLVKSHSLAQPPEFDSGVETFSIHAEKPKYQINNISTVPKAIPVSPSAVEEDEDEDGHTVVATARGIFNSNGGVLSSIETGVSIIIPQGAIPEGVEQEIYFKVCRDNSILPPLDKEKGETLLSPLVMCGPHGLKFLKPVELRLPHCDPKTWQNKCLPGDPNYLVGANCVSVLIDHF

Substance: SARS-CoV-2 Envelope (E) protein with mutated PBM (quadruplex of glycine instead of the PBM), produce (from UniProt P0DTC4 1-75)
- binding: no binding
